Results published in patent publication US20070248607A1, “NEGATIVE IMMUNOMODULATION OF IMMUNE RESPONSES BY NKG2D-POSITIVE CD4+ CELLS” (priority 2005, published 2007).
These are yes or no findings as the source states them, for the method shown. Binding seen in cells or lysates may run through a third protein. Here binding means that the protein was enriched with, or labelled near, the bait; the list need not be complete.

Biological target: T1, ERP5 on the cell surface of tumor cells (U266, Hela, A375) (UniProt Q15084 20-440, limits assumed)
T1 construct: whole, on cells; Endogenous protein of tumor cell lines; also called disulfide isomerase-related protein P5; surface ERP5
T1 sequence (looked up): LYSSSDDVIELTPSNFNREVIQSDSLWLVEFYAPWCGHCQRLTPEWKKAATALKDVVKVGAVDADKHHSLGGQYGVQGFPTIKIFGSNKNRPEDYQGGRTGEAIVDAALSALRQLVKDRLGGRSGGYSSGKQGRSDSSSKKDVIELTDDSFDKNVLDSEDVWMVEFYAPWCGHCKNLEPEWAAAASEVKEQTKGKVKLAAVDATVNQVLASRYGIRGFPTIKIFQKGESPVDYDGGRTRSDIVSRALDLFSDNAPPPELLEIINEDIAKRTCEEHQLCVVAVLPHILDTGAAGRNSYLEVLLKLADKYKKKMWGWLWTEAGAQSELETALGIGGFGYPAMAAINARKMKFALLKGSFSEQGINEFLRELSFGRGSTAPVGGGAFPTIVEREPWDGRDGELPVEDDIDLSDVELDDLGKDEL
Assay: affinity chromatography of U266 outer membrane proteins on MICA beads, SDS-PAGE, silver staining, mass spectrometry

B1: MICA-conjugated sepharose beads (ligand)
chain: EPHSLRYNLTVLSWDGSVQSGFLTEVHLDGQPFLRCDRQKCRAKPQGQWAEDVLGNKTWDRETRDLTGNGKDLRMTLAHIKDQKEGLHSLQEIRVCEIHEDNSTRSSQHFYYDGELFLSQNLETKEWTMPQSSRAQTLAMNVRNFLKEDAMKTKTHYHAMHADCLQELRRYLKSGVVLRRTVPPMVNVTRSEASEGNITVTCRASGFYPWNITLSWRQDGVSLSHDTQQWGDVLPDGNGTYQTWVATRICQGEEQRFTCYMEHSGNHSTHPVPSGK
modifications: coupled to sepharose beads
- binding: binds
